## Primary screen of a compound library

The chains behind the UniProt entries cited, without tags or fusion partners.
UniProt P9WPC5, whole entry: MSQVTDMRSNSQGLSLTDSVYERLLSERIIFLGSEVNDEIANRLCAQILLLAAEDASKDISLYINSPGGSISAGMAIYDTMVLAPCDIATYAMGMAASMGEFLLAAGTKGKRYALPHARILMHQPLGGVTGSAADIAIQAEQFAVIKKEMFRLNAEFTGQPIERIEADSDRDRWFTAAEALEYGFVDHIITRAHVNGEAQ
UniProt P9WPC3, whole entry partner: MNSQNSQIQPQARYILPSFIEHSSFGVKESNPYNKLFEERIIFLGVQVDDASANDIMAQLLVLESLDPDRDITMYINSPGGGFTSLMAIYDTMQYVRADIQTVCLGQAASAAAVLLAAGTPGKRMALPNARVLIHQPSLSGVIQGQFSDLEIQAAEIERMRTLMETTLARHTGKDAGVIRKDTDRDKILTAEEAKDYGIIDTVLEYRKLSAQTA
UniProt P9WFT3, whole entry: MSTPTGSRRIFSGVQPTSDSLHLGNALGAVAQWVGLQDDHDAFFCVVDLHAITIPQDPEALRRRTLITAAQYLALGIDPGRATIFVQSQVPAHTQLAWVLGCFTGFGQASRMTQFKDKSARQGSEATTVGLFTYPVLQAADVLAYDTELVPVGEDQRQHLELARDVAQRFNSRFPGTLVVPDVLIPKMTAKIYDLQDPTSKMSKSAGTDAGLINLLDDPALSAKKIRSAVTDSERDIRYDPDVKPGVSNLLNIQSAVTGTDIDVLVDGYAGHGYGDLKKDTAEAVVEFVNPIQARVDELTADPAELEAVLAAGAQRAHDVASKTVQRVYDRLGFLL
UniProt P9WNZ1, whole entry: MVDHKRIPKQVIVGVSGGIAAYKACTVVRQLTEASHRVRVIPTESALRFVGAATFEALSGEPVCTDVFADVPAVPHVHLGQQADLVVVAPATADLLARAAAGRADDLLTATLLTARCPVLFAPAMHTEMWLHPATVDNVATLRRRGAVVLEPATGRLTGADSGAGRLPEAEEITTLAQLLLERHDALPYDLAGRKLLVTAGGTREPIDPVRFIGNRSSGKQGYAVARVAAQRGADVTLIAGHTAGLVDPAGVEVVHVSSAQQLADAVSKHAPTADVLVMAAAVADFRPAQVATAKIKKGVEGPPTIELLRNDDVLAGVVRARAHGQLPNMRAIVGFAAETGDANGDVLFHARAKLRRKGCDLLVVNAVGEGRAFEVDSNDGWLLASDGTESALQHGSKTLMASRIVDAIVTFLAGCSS

ClpP1P2: 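ClpP1P2, Mycobacterium tuberculosis (UniProt P9WPC5 and UniProt P9WPC3). Protease assay of ClpP1P2, read by the AMC dye that it sets free. Tested at 50 µM. Direction is inferred from only a few compounds that gave an IC50; most scored high, so higher reads as stronger inhibition. Most other retested compounds had strongly negative values. About 69,000 compounds were tested under these conditions; 0.015% (about 10) showed 50% or more at least once.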
Toxoplasma: 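Assay of Toxoplasma gondii numbers, read through their beta-galactosidase reporter with a colour substrate. Compounds at 10 µM. The record gives no direction; the compounds picked for IC50 retests had high values, so higher reads as fewer parasites. Of about 67,000 compounds tested this way, about 260 (0.38%) reached 50% or more in at least one test.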
MtTrpRS: 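Enzyme assay of tryptophanyl-tRNA synthetase; the read-out is not stated. Target: Tryptophan-tRNA ligase, Mycobacterium tuberculosis (UniProt P9WFT3). Tested at 10 µM. Higher most likely means stronger inhibition; the record gives no direction and few retests gave an IC50. Size under these conditions: about 65,000 compounds, about 64 of them at 50% or above in at least one test.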
CoaBC: 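Enzyme assay of CoaBC with a phosphate dye (Biomol Green) read at 650 nm. Target: Coenzyme A biosynthesis protein CoaBC, Mycobacterium tuberculosis (UniProt P9WNZ1). Compounds at 30 µM. Direction is inferred from only a few compounds that gave an IC50; most scored high, so higher reads as stronger inhibition. Most strong results did not repeat in a second test. About 67,000 compounds were tested under these conditions; 0.06% (about 40) showed 50% or more at least once.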

Each number is a percent effect as filed. The controls that fix the scale are not given in the record; negative values are as filed. Compounds were drawn at random from those tested, without regard to their results. A dash means the value is not listed here; it may have been measured.

Compound	ClpP1P2	Toxoplasma	MtTrpRS	CoaBC
CS(=O)(=O)N1CCC(C(=O)N2CCC(Cn3cccn3)CC2)CC1	8.973	-0.8451	1.887	2.521
Cc1cc(CN(C)C(=O)c2cc3c([nH]c2=O)CCCC3=O)no1	-7.151	-78.62	-0.2916	4.722
Cc1noc(C)c1CN1CCCC2(CCN(C(=O)NC3CC3)C2)C1 (stereo not shown)	19.67	-	-0.229	-0.9674
[H][C@]12COC[C@H](NS(C)(=O)=O)[C@@]1([H])CN(Cc1ccco1)C2	-	8.031	-	-
COc1ccc(C(C)Nc2ncnc3c2NC(=O)CN3)cc1 (stereo not shown)	-25.95	-1.922	4.074	2.551
O=C(O)C(F)(F)F.[H][C@]12CCC[C@@]1(COCC1CC1)CN(Cc1cnn(C)c1)C2	-	8.197	-	-
Cc1ccc(F)cc1-n1c(CN(C)S(C)(=O)=O)n[nH]c1=O	10.18	-5.615	-4.229	-1.975
O=C(C1CC1)N1C[C@H]2CCCN(S(=O)(=O)c3ccc(Cl)s3)[C@H]2C1	-14.2	-	-5.644	-5.276
COC[C@@H]1CCC[C@@]12CN(C(=O)N1CCCC1)CCO2	4.907	-26.13	-	3.342
Cc1ccc(C(=O)NS(C)(=O)=O)cc1I	0.0901	14.53	0.5038	-4.104
NC(=O)c1ccc(OCCCN2C[C@H](C3CC3)[C@@H](N)C2)cc1	-3.606	-0.5187	-3.924	-13.79
CC(C)C1CN(C(=O)c2cc(C3CC3)n[nH]2)CCC(=O)N1CC1CC1 (stereo not shown)	-1.168	6.448	1.009	1.099
[H][C@@]12CS(=O)(=O)C[C@]1([H])N(S(=O)(=O)N1CCCC1)CCN2Cc1ccccc1	-	4.338	-	-
O=C(CC1CC1)N[C@@H]1CN(Cc2ccco2)C[C@@H]2CCCO[C@@H]21	-13.87	-	-3.58	4.886
O=C(Cc1ccc2c(c1)OCO2)N1CCN(c2ccccc2Cl)C(=O)C1	-11.83	-2.294	3.006	4.263
Cc1nc(C)c(C(=O)NCCNc2ncccn2)s1	-4.211	-19.62	-3.83	0.9126

The last 2 entries again:

With O=C(Cc1ccc2c(c1)OCO2)N1CCN(c2ccccc2Cl)C(=O)C1 the screen gave ClpP1P2: -11.83%; Toxoplasma: -2.294%; MtTrpRS: 3.006%; CoaBC: 4.263%.
With Cc1nc(C)c(C(=O)NCCNc2ncccn2)s1 the screen gave ClpP1P2: -4.211%; Toxoplasma: -19.62%; MtTrpRS: -3.83%; CoaBC: 0.9126%.

Source: ChEMBL document CHEMBL3988442, “University of Dundee, Small-Polar-MMV Screening Library” (2021).